From the supplement of paper PMC12067093, “Discovery and optimisation of a covalent ligand for TRIM25 and its application to targeted protein ubiquitination” (Chemical Science, 2025)
Some of the results follow.

By UniProt entry, the sequences of proteins in these tests, tags left out. Where a name states a change or a piece, a line headed by the entry shows the natural chain unless it says otherwise.
UniProt O60603, whole entry, looked up: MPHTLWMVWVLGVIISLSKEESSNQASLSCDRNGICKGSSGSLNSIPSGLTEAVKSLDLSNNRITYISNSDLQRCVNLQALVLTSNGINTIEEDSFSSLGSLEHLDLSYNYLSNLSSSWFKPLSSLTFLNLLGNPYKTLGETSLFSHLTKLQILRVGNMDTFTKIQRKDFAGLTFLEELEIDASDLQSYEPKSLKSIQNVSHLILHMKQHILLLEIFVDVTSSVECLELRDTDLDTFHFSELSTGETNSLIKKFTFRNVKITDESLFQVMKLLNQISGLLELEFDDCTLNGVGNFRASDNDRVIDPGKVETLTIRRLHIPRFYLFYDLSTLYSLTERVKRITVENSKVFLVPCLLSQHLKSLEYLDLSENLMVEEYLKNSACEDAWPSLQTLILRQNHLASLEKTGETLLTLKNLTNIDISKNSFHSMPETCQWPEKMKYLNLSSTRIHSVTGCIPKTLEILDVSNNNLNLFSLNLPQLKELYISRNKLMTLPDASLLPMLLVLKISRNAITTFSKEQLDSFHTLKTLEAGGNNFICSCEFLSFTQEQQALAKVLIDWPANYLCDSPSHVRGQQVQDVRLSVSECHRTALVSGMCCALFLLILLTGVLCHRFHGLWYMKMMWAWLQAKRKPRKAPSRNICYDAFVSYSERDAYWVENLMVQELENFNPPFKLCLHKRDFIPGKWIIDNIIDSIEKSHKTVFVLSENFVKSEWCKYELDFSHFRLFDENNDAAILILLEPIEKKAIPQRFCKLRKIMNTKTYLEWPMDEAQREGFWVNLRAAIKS
UniProt P11387: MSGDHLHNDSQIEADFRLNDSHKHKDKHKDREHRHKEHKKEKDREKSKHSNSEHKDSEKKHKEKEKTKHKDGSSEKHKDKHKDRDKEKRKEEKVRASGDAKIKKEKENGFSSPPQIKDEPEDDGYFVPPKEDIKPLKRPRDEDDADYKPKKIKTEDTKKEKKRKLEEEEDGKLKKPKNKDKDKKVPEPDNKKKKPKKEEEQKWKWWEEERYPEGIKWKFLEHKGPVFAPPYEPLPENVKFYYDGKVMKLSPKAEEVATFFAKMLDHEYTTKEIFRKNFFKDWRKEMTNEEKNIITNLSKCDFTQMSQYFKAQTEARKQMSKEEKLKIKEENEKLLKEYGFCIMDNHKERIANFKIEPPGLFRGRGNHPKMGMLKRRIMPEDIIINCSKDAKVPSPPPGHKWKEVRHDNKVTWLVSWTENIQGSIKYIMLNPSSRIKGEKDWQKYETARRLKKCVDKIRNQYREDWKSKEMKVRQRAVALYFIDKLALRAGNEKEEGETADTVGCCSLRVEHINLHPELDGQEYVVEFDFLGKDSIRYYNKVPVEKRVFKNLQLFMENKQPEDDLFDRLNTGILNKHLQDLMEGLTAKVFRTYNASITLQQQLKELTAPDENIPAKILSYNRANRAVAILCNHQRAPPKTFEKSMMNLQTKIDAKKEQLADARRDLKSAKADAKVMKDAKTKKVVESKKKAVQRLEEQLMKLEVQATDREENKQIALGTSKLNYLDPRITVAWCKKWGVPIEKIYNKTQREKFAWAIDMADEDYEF
UniProt Q92973: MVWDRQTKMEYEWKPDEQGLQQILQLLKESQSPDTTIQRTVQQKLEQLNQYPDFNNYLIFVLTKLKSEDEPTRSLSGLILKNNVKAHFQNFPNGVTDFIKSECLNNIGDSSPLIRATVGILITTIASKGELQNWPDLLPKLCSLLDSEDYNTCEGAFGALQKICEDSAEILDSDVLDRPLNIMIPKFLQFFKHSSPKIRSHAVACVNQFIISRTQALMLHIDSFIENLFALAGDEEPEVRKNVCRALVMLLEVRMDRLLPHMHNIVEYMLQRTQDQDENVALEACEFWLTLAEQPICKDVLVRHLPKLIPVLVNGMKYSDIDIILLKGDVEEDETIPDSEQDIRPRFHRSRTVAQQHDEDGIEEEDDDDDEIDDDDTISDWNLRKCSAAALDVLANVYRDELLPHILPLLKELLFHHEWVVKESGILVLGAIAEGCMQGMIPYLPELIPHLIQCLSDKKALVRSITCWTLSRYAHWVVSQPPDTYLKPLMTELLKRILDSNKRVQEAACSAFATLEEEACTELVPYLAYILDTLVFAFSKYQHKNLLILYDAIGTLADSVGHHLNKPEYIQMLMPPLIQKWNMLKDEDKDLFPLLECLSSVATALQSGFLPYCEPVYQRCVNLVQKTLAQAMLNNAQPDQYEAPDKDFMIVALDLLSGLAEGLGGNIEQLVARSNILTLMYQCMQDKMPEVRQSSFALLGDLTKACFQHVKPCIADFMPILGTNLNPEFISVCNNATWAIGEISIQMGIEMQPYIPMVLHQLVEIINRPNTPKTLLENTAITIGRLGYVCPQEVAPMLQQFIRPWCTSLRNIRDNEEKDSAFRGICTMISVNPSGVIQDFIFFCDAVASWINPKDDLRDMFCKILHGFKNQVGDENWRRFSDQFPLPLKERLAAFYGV
UniProt Q12888: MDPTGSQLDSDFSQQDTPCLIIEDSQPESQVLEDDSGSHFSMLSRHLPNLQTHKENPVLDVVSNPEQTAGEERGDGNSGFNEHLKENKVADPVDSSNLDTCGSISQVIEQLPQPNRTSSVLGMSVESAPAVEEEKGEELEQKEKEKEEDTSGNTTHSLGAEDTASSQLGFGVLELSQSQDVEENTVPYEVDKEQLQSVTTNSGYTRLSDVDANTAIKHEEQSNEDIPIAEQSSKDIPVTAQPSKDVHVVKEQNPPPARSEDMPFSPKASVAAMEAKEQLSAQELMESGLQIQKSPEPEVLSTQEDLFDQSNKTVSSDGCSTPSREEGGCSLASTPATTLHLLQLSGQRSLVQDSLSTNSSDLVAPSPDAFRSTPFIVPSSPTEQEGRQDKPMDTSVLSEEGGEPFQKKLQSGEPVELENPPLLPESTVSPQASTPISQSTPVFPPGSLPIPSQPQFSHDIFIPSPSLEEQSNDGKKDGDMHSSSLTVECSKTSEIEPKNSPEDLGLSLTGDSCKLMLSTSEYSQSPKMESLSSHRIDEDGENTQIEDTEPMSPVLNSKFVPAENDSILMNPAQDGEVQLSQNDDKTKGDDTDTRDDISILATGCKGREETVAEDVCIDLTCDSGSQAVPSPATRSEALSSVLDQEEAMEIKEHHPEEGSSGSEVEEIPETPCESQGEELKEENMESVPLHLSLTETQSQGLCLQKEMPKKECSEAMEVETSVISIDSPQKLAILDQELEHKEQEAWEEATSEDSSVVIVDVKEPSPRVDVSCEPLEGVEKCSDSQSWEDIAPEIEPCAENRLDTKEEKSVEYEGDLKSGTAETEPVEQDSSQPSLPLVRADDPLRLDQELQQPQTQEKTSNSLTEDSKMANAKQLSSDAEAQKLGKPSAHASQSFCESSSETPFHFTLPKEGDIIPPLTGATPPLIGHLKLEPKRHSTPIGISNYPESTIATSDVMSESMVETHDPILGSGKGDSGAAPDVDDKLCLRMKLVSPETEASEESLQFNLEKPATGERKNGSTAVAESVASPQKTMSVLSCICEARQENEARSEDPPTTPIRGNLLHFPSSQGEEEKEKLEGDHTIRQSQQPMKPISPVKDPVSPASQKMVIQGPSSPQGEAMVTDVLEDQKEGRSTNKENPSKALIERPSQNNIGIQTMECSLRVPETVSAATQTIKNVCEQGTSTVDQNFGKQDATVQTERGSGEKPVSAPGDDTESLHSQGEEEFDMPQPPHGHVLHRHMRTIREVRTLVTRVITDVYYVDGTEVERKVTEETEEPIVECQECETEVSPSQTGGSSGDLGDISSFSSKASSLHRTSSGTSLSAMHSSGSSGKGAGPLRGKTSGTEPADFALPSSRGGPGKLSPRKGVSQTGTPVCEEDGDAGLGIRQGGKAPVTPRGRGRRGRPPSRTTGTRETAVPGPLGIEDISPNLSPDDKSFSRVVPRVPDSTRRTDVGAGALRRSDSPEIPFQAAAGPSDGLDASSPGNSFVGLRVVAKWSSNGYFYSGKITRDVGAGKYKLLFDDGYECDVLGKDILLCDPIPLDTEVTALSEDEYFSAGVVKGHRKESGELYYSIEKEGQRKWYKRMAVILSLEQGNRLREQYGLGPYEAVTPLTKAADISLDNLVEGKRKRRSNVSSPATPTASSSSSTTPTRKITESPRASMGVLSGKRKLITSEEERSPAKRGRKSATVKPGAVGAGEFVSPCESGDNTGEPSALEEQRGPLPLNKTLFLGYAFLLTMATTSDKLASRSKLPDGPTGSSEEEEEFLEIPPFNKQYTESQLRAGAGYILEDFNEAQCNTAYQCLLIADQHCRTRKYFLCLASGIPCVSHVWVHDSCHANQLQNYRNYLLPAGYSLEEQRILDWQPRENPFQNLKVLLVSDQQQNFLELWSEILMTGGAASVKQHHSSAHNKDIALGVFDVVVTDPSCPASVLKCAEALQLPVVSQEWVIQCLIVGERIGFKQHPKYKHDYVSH
UniProt Q68CZ2: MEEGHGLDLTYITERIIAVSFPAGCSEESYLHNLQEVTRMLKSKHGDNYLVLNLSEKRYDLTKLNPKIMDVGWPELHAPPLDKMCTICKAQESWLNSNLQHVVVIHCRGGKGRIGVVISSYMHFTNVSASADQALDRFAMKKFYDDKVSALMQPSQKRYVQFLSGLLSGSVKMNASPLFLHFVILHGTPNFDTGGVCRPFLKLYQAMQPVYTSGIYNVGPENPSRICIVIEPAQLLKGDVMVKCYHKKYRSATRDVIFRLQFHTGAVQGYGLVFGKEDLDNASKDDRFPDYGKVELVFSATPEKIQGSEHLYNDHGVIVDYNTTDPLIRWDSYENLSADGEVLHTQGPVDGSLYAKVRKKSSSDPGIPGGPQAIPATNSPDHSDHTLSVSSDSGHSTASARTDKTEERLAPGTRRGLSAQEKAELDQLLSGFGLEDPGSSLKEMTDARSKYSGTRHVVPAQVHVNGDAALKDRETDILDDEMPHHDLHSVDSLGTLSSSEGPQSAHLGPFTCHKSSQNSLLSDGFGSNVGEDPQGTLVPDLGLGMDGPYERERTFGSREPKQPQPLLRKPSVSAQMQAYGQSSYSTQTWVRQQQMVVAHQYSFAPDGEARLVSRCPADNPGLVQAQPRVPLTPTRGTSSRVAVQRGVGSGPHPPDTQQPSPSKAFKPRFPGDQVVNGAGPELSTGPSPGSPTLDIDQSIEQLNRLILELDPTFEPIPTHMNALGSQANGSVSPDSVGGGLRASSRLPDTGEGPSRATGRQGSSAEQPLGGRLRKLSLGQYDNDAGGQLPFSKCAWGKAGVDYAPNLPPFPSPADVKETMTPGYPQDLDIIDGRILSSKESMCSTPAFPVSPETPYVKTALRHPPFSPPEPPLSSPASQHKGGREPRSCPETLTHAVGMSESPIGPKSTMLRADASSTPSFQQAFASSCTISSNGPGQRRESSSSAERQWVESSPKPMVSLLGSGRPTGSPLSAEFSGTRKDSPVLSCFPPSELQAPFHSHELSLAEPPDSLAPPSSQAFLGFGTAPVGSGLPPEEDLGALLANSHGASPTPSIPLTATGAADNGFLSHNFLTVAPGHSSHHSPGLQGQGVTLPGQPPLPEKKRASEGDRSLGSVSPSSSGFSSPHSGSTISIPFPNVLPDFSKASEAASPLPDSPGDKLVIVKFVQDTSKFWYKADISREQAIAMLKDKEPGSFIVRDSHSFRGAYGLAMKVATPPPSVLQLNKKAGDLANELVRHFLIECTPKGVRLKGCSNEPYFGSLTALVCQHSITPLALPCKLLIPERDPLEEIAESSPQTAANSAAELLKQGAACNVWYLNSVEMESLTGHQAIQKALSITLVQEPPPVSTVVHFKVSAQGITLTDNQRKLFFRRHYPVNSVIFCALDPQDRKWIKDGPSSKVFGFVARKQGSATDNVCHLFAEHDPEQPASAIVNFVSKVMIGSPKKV
UniProt Q9NV96: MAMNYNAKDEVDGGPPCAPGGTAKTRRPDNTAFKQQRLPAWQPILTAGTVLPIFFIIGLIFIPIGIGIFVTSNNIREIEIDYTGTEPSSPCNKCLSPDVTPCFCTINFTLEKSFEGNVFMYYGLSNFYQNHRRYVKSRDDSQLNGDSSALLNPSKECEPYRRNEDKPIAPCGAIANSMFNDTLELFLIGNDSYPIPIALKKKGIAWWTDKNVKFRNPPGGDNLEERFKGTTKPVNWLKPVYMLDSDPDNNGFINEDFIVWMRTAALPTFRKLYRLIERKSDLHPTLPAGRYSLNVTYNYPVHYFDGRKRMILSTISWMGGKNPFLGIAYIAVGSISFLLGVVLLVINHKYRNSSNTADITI
UniProt Q6PL24: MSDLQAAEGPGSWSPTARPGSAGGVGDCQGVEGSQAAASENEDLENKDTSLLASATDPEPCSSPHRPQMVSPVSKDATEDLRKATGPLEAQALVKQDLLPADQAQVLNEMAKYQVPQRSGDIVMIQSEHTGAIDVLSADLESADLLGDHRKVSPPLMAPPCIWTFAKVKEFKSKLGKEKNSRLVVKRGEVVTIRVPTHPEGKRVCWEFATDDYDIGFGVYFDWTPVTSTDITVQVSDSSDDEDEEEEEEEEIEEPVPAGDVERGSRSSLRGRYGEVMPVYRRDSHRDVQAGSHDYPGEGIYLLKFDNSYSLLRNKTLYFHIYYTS

Compound: CC1Cc2ccccc2N1C(=O)C1CCCN(C1)C(=O)CCl (mixture of isomers) [TRIM25 ligand 11 (diastereomer mixture)]
Test: probe-labelled cysteine peptide fold change vs DMSO (competition) (log2 fold change); higher = less target engagement (more negative = stronger competition)
Conditions: THP-1, incubation time: 4 h
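Further: competitive chemoproteomic profiling in live THP-1 cells with an iodoacetamide desthiobiotin (IA-DTB) probe, comparing probe-labelled peptide intensities in compound-treated cells against DMSO-treated controls.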

| Target | probe-labelled cysteine peptide fold change (10 µM) | probe-labelled cysteine peptide fold change (50 µM) |
| --- | --- | --- |
| TMPO_P42166_518_QLPSLACK (UniProt P42166) | 0.0401 | -0.0147 |
| TMEM87A_Q8NBN3_89_SADCYNEIYNFK (UniProt Q8NBN3) | -0.0384 | 0.0204 |
| TOP3B_O95985_36_GLNGACSVHEYTGTFAGQPVR (UniProt O95985) | 0.33 | 0.0672 |
| TLR2_O60603_585_LSVSECHR (UniProt O60603) | 0.0952 | 0.0385 |
| TOP2A_P11388_733_VLFTCFK (UniProt P11388) | 0.0957 | 0.261 |
| TOP1_P11387_300_CDFTQMSQYFK (UniProt P11387) | -0.0527 | -0.0936 |
| TOP2B_Q02880_1018+1029_LQTTLTCNSMVLFDHMGCLK (UniProt Q02880) | 0.141 | -0.0526 |
| TOPBP1_Q92547_1485_TEYIADYLMQESPPHVENYCLPEAISFIQNNK (UniProt Q92547) | 0.321 | 0.142 |
| TONSL_Q96HA7_972_YYQTCGLLPR (UniProt Q96HA7) | 0.08 | 0.0172 |
| TOX4_O94842_596_DWDNEYCSNECVVK (UniProt O94842) | -0.0519 | -0.0723 |
| TMEM87B_Q96K49_121_LSVDEDFCHYLK (UniProt Q96K49) | -0.0996 | -0.152 |
| TPI1_P60174_104_IAVAAQNCYK (UniProt P60174) | -0.0506 | -0.0513 |
| TMEM209_Q96SK2_495_TFTSQHFVQTPNKPDVTNENVFCIYQSAINPPHYELIYQR (UniProt Q96SK2) | 0.127 | -0.07 |
| TLN1_Q9Y490_236+243_ACEFAGFQCQIQFGPHNEQK (UniProt Q9Y490) | -0.0939 | 0.0364 |
| TNPO1_Q92973_862_DDLRDMFCK (UniProt Q92973) | 0.114 | 0.132 |
| TMEM260_Q9NX78_647_NYAIACER (UniProt Q9NX78) | -0.0872 | 0.0162 |
| TOP2B_Q02880_476_HSLECTLILTEGDSAK (UniProt Q02880) | -0.00291 | 0.112 |
| TMEM173_Q86WV6_148_GLAPAEISAVCEK (UniProt Q86WV6) | 0.0912 | 0.22 |
| TNPO2_O14787_93_QECLNNIGDASSLIR (UniProt O14787) | 0.282 | 0.058 |
| TMEM209_Q96SK2_455_KWDTDLPTDSAIIMHVFCTYLDSR (UniProt Q96SK2) | 0.0922 | 0.0839 |
| TOR1AIP1_Q5JTV8_424_CLSEQIADAYSSFR (UniProt Q5JTV8) | 0.0577 | 0.264 |

| Target | probe-labelled cysteine peptide fold change (10 µM) | probe-labelled cysteine peptide fold change (50 µM) |
| --- | --- | --- |
| TLN2_Q9Y4G6_1110_AVGSSMAQLLTCAAQGNEHYTGVAAR (UniProt Q9Y4G6) | -0.0955 | -0.234 |
| TMEM9B_Q9NQ34_86_GPDVEAYCLR (UniProt Q9NQ34) | 0.21 | 0.216 |
| TMEM9B_Q9NQ34_68_DCDCLHVVEPMPVRGPDVEAYCLR (UniProt Q9NQ34) | 0.112 | 0.237 |
| TOR1A_O14656_50_LYCLFAECCGQK (UniProt O14656) | 0.0352 | 0.154 |
| TOP2A_P11388_170_LCNIFSTK (UniProt P11388) | 0.00483 | -0.016 |
| TNPO3_Q9Y5L0_908_QVTSAEECK (UniProt Q9Y5L0) | 0.047 | 0.0508 |
| TMEM248_Q9NWD8_305_QSNPEFCPEK (UniProt Q9NWD8) | 0.202 | 0.0568 |
| TLN1_Q9Y490_732_VVAPTISSPVCQEQLVEAGR (UniProt Q9Y490) | 0.278 | 0.0981 |
| TMPPE_Q6ZT21_358_ALEGCSPDHTIILLAHQPLAAK (UniProt Q6ZT21) | 0.028 | -0.085 |
| TOP2B_Q02880-2_7_SGGCGAGAGVGGGNGALTWVNNAAK (UniProt Q02880) | -0.0783 | – |
| TP53BP1_Q12888_1040_TMSVLSCICEAR (UniProt Q12888) | -0.0737 | -0.52 |
| TNPO1_Q92973_164_ICEDSAEILDSDVLDRPLNIMIPK (UniProt Q92973) | -0.0514 | -0.0355 |
| TNS3_Q68CZ2_615_CPADNPGLVQAQPR (UniProt Q68CZ2) | 0.0127 | -0.206 |
| TMEM259_Q4ZIN3_246_LSIPVMVVTLDPTRDQCFGDR (UniProt Q4ZIN3) | 0.0157 | -0.192 |
| TOR2A_Q5JU69_54_CTLGAFCECDFRPDLPGLECDLAQHLAGQHLAK (UniProt Q5JU69) | 0.174 | 0.343 |
| TMEM94_Q12767_381_CIWGHFLR (UniProt Q12767) | -0.00858 | – |
| TONSL_Q96HA7_30_REEAALCHQLGELLAGHGR (UniProt Q96HA7) | -0.0229 | 0.136 |
| TLN2_Q9Y4G6_2153_ALEATIECIK (UniProt Q9Y4G6) | -0.093 | 0.017 |
| TOPBP1_Q92547_60_SLYICDPFSGVVFDHLK (UniProt Q92547) | 0.248 | 0.28 |
| TOP1_P11387_386_IMPEDIIINCSK (UniProt P11387) | -0.0421 | -0.114 |
| TLR6_Q9Y2C9_672_EDIQICLHER (UniProt Q9Y2C9) | -0.000798 | 0.109 |

| Target | probe-labelled cysteine peptide fold change (10 µM) | probe-labelled cysteine peptide fold change (50 µM) |
| --- | --- | --- |
| TNS3_Q68CZ2_1241_HFLIECTPK (UniProt Q68CZ2) | -0.0515 | -0.0693 |
| TOP2A_P11388_1008_LQTSLTCNSMVLFDHVGCLK (UniProt P11388) | 0.0519 | 0.105 |
| TOP2A_P11388_392_SFGSTCQLSEK (UniProt P11388) | 0.0688 | -0.0495 |
| TP53BP1_Q12888_1926_DIALGVFDVVVTDPSCPASVLK (UniProt Q12888) | -0.0789 | -0.145 |
| TMED5_Q9Y3A6_47_ECFYQPMPLK (UniProt Q9Y3A6) | -0.157 | -0.297 |
| TMEM30A_Q9NV96_17_DEVDGGPPCAPGGTAK (UniProt Q9NV96) | -0.00767 | 0.0338 |
| TOP2B_Q02880_387_NHIWVFINCLIENPTFDSQTK (UniProt Q02880) | -0.0715 | 0.0129 |
| TMUB2_Q71RG4_236+240_SLNITDNCVIHCHR (UniProt Q71RG4) | -0.135 | 0.171 |
| TLN1_Q9Y490_1671_APGQLECETAIAALNSCLR (UniProt Q9Y490) | 0.0258 | 0.0981 |
| TOMM70_O94826_136_YEQAIQCYTEAISLCPTEK (UniProt O94826) | 0.145 | 0.205 |
| TOMM70_O94826_427_ILLDQVEEAVADFDECIR (UniProt O94826) | -0.258 | -0.163 |
| TNS3_Q68CZ2_107_AQESWLNSNLQHVVVIHCR (UniProt Q68CZ2) | 0.0474 | 0.311 |
| TOP2A_P11388_300_WEVCLTMSEK (UniProt P11388) | -0.00381 | 0.176 |
| TNPO3_Q9Y5L0_580_ITECLSELCSVQVMALKK (UniProt Q9Y5L0) | -0.0701 | -0.0556 |
| TOR2A_Q5JU69_271_HCVLNELAQLGLEPR (UniProt Q5JU69) | 0.1 | 0.187 |
| TMEM39A_Q9NV64_276_NEVECLK (UniProt Q9NV64) | 0.306 | 0.183 |
| TOR3A_Q9H497_385_EEQLFSSQGCK (UniProt Q9H497) | 0.032 | 0.371 |
| TOE1_Q96GM8_371_KQVCGDSIKPEETEQEVAADETR (UniProt Q96GM8) | -0.0413 | -0.201 |
| TMEM30A_Q9NV96_91_EIEIDYTGTEPSSPCNK (UniProt Q9NV96) | 0.124 | 0.00329 |
| TP53BP1_Q12888_712_ECSEAMEVETSVISIDSPQK (UniProt Q12888) | 0.0948 | -0.262 |
| TMED8_Q6PL24_161_KVSPPLMAPPCIWTFAK (UniProt Q6PL24) | -0.212 | -0.371 |

| Target | probe-labelled cysteine peptide fold change (10 µM) | probe-labelled cysteine peptide fold change (50 µM) |
| --- | --- | --- |
| TMF1_P82094_301_SSLHLMQTSFQLLSASACPEYNR (UniProt P82094) | -0.319 | -0.525 |
| TMEM94_Q12767_674_LSCVTK (UniProt Q12767) | -0.0381 | -0.15 |
| TOE1_Q96GM8_89_AVCHAAR (UniProt Q96GM8) | 0.0725 | 0.158 |
| TMEM120A_Q9BXJ8_47_LQNNCTSSITR (UniProt Q9BXJ8) | -0.112 | -0.0154 |
| TOPBP1_Q92547_430_WLLECFSK (UniProt Q92547) | -0.0487 | -0.183 |
| TMCO6_Q96DC7_14_LRPTVCGVEELRR (UniProt Q96DC7) | 0.00216 | -0.154 |
| TOB2_Q14106_120_VLYLDDSEGCGAPELDK (UniProt Q14106) | -0.297 | -0.072 |
| TLN1_Q9Y490_1927_HRVQELGHGCAALVTK (UniProt Q9Y490) | -0.112 | -0.165 |
| TNPO1_Q92973_103_SECLNNIGDSSPLIR (UniProt Q92973) | 0.0608 | -0.0391 |
| TMEM9B_Q9NQ34_66_DCDCLHVVEPMPVRGPDVEAYCLR (UniProt Q9NQ34) | 0.075 | -0.0614 |
| TPI1_P60174_164_VAHALAEGLGVIACIGEK (UniProt P60174) | -0.0164 | -0.0769 |
| TMED8_Q6PL24_161_VSPPLMAPPCIWTFAK (UniProt Q6PL24) | -0.0272 | -0.159 |
| TOR4A_Q9NXH8_230_HHCPEAR (UniProt Q9NXH8) | 0.05 | -0.009 |
| TLR2_O60603_454_IHSVTGCIPK (UniProt O60603) | 0.0287 | 0.00221 |
| TNFAIP2_Q03169_429_ANVIANINNCLSFR (UniProt Q03169) | 0.0995 | 0.132 |
| TMEM106B_Q9NUM4_61_DSVTCPTCQGTGR (UniProt Q9NUM4) | -0.212 | -0.256 |
| TLN1_Q9Y490_1661_APGQLECETAIAALNSCLR (UniProt Q9Y490) | 0.0449 | -0.0898 |
| TMEM94_Q12767_984_GIHQVRPHLQNIDNVPLLVPLFTDCTPETMCEMIK (UniProt Q12767) | -0.0567 | 0.0187 |
| TNPO2_O14787_375_CSAAALDVLANVFR (UniProt O14787) | 0.125 | 0.388 |
| TMEM192_Q8IY95_266_LLALTSSDLGCQPSR (UniProt Q8IY95) | -0.0897 | -0.0946 |
| TNKS1BP1_Q9C0C2_1296_NMAPGAVCSPGESK (UniProt Q9C0C2) | 0.00736 | -0.401 |
